Most of the targets with a hit are listed elsewhere, so they are rarer here than in the full data. Single values of this set are uncertain. The entries are a selection whose mix differs from that of the whole data set.
Compound: COC(=O)/C=C/c1ccccc1 [methyl cinnamate]
Assay: log2 ratio of iodoacetamide-alkyne labeling of the cysteine site, DMSO over compound (competition); higher = stronger covalent engagement of the cysteine by the compound, active = 1 or more
Details: 500 µM; treatment time 1 h; system: HEK293T cell lysate
How it was run: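 HEK293T lysate (2 mg/mL) was incubated with electrophile (500 µM) or vehicle for 1 h at ambient temperature and then with iodoacetamide alkyne for 1 h. Labelled proteins were clicked to sCIP-TMT reagents, pooled, digested, enriched on streptavidin and measured by Orbitrap Eclipse LC-MS/MS with FAIMS, with FragPipe quantification. The per-cysteine log2 competition ratio is mean control-channel reporter intensity over mean compound-channel reporter intensity. Across three replicates with duplicate channels, cysteines quantified in only one replicate were excluded.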

By UniProt entry, the sequences of proteins in these tests, tags left out. Where a name states a change or a piece, a line headed by the entry shows the natural chain unless it says otherwise.
UniProt P02545: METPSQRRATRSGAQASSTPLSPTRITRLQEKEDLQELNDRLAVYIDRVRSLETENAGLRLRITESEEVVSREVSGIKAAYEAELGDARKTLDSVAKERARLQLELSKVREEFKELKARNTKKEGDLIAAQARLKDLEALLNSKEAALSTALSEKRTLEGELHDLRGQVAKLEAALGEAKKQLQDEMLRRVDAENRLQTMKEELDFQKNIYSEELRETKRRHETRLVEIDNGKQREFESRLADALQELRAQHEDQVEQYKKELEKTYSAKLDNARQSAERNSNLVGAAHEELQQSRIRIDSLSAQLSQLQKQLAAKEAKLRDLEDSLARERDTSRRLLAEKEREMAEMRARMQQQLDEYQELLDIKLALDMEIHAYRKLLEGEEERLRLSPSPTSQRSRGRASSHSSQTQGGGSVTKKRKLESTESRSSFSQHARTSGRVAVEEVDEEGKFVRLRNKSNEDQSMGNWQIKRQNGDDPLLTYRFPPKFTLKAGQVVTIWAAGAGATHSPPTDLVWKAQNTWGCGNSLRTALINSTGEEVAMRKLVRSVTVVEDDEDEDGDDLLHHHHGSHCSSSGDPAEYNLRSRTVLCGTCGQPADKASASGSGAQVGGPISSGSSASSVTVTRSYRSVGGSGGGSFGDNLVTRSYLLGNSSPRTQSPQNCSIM
UniProt O95551: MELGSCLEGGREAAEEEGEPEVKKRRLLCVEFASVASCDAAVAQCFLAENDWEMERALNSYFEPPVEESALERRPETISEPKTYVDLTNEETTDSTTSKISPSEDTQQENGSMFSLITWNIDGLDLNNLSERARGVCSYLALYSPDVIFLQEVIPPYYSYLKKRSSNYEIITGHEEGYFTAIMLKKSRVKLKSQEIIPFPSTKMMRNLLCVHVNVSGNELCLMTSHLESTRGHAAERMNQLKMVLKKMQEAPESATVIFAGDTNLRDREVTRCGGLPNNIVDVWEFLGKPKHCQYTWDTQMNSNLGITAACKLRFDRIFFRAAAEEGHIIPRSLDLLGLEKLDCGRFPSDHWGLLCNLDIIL
UniProt P07195, whole entry, looked up: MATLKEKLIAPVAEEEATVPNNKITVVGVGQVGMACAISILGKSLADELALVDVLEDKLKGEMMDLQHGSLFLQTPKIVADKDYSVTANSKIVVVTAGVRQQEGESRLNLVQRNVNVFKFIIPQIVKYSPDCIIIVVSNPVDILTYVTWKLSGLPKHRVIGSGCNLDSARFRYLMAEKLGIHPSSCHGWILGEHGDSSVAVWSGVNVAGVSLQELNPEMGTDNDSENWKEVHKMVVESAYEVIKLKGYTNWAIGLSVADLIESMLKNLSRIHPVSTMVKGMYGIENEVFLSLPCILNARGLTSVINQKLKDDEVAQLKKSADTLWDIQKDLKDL
UniProt O95639, whole entry, looked up: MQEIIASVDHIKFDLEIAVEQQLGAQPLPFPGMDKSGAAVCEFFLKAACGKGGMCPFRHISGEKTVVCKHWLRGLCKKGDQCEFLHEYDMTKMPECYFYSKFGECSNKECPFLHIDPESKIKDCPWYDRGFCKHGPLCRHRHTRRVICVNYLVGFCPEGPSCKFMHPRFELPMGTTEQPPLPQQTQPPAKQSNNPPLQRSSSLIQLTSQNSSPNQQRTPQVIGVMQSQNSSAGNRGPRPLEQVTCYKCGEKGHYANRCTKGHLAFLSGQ
UniProt O95573: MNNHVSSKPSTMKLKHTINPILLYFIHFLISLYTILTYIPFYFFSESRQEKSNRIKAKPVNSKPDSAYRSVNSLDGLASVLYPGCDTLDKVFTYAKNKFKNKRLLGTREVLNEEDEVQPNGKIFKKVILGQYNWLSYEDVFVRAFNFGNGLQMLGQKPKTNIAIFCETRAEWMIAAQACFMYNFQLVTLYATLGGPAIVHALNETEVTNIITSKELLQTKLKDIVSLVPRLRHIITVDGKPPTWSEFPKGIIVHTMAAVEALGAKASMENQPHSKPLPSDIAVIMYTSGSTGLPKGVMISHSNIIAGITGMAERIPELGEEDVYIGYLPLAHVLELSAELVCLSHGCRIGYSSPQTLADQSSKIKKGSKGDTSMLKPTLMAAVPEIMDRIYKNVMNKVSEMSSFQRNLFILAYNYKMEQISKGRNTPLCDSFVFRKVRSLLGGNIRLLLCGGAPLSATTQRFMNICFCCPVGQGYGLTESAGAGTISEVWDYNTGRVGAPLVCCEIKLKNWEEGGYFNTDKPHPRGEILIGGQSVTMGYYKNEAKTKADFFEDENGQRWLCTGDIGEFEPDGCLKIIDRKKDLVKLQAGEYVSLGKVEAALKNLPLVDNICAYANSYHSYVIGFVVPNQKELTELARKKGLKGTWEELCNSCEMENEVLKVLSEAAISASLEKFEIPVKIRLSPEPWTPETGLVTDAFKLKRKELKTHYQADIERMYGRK
UniProt O95983: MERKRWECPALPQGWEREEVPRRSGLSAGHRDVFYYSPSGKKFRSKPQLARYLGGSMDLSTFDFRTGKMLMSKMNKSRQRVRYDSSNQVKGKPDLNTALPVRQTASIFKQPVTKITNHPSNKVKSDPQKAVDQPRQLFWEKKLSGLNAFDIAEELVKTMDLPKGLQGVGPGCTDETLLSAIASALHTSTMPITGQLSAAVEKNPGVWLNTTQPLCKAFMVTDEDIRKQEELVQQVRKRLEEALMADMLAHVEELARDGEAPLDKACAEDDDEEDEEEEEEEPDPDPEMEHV
UniProt O94992, whole entry, looked up: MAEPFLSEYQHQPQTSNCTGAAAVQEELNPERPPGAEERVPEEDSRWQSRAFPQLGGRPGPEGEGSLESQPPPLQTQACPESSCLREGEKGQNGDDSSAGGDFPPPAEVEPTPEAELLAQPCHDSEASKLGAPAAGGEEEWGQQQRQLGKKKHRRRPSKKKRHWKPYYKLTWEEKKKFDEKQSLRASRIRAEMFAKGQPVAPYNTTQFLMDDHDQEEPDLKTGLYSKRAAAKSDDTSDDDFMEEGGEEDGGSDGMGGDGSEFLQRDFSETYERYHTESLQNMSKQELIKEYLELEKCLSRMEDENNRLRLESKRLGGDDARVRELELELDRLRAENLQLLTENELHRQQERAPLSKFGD
UniProt P04181: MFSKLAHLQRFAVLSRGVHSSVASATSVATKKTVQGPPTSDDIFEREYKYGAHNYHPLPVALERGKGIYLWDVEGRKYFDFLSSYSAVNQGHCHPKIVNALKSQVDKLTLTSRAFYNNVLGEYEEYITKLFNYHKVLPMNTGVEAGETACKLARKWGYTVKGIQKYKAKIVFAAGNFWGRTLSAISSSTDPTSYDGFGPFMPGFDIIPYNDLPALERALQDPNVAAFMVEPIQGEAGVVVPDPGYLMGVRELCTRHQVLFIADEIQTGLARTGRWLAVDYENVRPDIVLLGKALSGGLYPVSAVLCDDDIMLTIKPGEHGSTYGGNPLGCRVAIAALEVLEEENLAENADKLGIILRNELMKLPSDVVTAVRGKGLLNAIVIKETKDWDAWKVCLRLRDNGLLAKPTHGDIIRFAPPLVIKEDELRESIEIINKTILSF
UniProt O95817, whole entry, looked up: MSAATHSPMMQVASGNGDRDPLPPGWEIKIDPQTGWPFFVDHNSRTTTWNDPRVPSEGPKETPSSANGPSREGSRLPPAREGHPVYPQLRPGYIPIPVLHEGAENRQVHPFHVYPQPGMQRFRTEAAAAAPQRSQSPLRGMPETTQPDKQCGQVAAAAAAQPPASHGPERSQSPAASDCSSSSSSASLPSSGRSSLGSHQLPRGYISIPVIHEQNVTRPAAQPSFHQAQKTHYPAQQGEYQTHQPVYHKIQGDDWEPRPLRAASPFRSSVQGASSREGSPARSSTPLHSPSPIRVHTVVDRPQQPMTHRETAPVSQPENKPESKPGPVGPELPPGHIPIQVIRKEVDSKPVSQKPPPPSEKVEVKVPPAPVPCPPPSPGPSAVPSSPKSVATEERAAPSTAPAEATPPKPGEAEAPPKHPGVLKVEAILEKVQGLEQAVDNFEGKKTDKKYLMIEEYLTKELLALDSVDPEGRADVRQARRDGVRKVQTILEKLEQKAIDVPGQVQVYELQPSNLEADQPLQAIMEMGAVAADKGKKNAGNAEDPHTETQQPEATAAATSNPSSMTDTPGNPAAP
UniProt P05386, whole entry, looked up: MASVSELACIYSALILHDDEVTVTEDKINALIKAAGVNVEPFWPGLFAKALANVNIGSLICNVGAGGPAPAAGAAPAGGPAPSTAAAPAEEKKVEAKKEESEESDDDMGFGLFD
UniProt O95232: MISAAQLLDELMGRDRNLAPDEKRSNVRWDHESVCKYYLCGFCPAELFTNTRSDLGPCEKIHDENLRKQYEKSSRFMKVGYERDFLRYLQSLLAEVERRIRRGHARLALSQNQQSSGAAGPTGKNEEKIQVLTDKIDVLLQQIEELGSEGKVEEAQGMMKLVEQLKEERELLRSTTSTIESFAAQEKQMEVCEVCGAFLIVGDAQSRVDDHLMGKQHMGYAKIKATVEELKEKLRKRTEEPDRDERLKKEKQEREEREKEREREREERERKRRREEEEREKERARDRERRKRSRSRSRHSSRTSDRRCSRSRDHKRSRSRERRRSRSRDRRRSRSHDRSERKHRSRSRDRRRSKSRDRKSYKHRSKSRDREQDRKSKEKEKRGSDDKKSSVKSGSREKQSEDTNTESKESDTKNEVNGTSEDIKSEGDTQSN
UniProt O95336: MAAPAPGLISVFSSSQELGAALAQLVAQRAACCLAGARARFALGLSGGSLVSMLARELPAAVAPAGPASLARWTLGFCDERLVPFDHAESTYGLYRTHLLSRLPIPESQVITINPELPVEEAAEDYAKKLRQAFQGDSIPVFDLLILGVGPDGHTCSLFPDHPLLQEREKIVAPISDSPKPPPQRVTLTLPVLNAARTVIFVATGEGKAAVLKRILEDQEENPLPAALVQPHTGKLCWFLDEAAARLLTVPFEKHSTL
UniProt P07814: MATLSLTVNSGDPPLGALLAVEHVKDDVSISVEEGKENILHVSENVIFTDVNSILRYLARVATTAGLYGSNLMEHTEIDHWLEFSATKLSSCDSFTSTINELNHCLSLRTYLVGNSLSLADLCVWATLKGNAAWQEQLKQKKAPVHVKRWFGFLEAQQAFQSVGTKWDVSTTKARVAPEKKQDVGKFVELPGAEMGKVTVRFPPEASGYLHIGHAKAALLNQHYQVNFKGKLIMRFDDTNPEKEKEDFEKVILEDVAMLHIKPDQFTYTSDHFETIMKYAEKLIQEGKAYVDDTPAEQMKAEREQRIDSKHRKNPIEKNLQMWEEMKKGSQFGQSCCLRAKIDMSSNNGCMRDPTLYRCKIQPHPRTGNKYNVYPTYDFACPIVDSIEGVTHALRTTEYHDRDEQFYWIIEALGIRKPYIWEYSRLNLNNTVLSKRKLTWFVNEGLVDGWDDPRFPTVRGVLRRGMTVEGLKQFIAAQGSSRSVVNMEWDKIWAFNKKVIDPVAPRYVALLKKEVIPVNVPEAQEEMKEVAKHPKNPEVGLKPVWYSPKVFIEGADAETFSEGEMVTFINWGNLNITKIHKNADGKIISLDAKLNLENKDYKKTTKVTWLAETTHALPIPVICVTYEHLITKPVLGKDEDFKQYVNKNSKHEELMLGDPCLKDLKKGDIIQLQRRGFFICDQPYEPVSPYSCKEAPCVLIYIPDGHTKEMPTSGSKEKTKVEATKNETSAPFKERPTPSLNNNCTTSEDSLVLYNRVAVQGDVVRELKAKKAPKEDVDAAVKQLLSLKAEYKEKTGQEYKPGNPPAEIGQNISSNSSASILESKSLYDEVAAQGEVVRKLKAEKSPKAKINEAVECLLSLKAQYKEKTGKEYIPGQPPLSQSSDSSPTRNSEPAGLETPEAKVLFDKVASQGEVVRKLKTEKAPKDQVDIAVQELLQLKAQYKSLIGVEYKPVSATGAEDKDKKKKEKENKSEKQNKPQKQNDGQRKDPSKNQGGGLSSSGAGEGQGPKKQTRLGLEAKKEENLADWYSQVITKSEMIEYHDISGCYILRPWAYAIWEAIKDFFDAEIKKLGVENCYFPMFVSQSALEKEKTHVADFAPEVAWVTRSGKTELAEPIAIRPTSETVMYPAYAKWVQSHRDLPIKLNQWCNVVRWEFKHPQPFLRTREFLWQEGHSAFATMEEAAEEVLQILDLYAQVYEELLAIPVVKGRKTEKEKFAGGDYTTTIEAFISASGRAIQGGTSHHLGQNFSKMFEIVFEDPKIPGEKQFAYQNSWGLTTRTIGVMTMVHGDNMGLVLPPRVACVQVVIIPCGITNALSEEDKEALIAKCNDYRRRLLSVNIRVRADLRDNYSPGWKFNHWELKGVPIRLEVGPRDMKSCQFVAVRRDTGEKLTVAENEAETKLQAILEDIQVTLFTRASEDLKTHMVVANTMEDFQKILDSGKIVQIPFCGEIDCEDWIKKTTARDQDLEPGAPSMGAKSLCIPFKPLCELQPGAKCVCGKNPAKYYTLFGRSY
UniProt P07737, whole entry, looked up: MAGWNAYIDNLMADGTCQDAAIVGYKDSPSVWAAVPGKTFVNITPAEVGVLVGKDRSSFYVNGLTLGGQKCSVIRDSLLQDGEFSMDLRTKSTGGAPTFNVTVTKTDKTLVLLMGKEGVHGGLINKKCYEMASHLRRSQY

log2 ratio of iodoacetamide-alkyne labeling, inactive:
LMNA C570 (UniProt P02545) 0.32
BAG2 C142 (UniProt O95816) 0.134
UniProt O95551_C6 0.169
TTC4 C238 (UniProt O95801) -0.0337
LDHB C294 (UniProt P07195) 0.0848
GPI C404 (UniProt P06744) 0.00314
CPSF4 C110 (UniProt O95639) -0.188
ACSL3 C652 (UniProt O95573) -0.0508
ASS1 C132 (UniProt P00966) -0.0475
MBD3 C266 (UniProt O95983) 0.139
CA2 C205 (UniProt P00918) 0.04
UniProt O95104_C506 0.105
UniProt O95758_C68 -0.0318
UBE4B C494 (UniProt O95155) 0.162
NPM1 C21 (UniProt P06748) 0.145
ENO1 C119 (UniProt P06733) 0.0539
RPLP0 C226 (UniProt P05388) 0.407
UniProt O95551_C273 -0.413
LMNA C522 (UniProt P02545) 0.253
SLU7 C469 (UniProt O95391) 0.158
EIF4E C170 (UniProt P06730) 0.16
HEXIM1 C84 (UniProt O94992) 0.213
ETHE1 C34 (UniProt O95571) 0.119
UniProt O94927_C12 -0.217
OAT C306 (UniProt P04181) 0.0318
UniProt O94763_C448 0.154
BAG3 C179 (UniProt O95817) 0.438
RPLP1 C9 (UniProt P05386) 0.0998
KIF4A C1224 (UniProt O95239) 0.191
UniProt O95232_C43 -0.325
PGLS C237 (UniProt O95336) -0.0217
EPRS C359 (UniProt P07814) 0.0567
EPRS C105 (UniProt P07814) -0.097
NR3C1 C481 (UniProt P04150) 0.199
PFN1 C128 (UniProt P07737) 0.206
BAG3 C151 (UniProt O95817) 0.151

No new results follow: an excerpt of the list.
log2 ratio of iodoacetamide-alkyne labeling, inactive:
ENO1 C119 (UniProt P06733) 0.0539
RPLP0 C226 (UniProt P05388) 0.407
UniProt O95551_C273 -0.413
LMNA C522 (UniProt P02545) 0.253
SLU7 C469 (UniProt O95391) 0.158
EIF4E C170 (UniProt P06730) 0.16
HEXIM1 C84 (UniProt O94992) 0.213
ETHE1 C34 (UniProt O95571) 0.119

— the supplement of paper PMC11006884
